{
  "source": "paper PMC7862700",
  "note": "This is one part of the list. The source does not settle which construct or isoform was used.",
  "data": [
    {"molecular_target": "T1, ETV4 (UniProt P43268)", "T1 sequence": "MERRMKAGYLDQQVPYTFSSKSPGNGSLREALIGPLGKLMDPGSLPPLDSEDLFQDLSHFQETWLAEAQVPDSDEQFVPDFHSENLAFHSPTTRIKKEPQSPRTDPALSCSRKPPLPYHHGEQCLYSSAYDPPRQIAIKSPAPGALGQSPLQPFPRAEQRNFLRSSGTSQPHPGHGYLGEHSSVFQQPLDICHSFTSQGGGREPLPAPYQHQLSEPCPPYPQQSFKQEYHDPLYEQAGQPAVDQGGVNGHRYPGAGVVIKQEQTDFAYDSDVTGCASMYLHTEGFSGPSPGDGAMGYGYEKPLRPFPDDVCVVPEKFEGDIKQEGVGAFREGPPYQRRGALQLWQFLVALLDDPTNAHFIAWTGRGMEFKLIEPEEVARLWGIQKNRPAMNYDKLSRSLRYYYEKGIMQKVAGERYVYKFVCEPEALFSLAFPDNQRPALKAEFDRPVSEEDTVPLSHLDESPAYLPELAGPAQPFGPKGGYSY", "experiment": "DAPPL (digital affinity profiling via proximity ligation, sequencing)", "conditions": "10 mM Tris-HCl pH 7.5, 50 mM NaCl, 1 mM DTT, 4% glycerol, room temperature, 30 min; GST-TFs on glutathione beads, 16-mer random dsDNA library, 0.1% …; high values mean tight binding; double strand, one strand shown; scale: fold enrichment (6-mer frequency, TF over GST control)", "values": [
      {"sequence": "CTAAAC", "binding signal": 1.24},
      {"sequence": "AGCAGC", "binding signal": 1.09},
      {"sequence": "TTTTGT", "binding signal": 1.3},
      {"sequence": "CGCCTT", "binding signal": 1.59},
      {"sequence": "CACACT", "binding signal": 1.26},
      {"sequence": "GTTACG", "binding signal": 1.02},
      {"sequence": "AATGAG", "binding signal": 1.04},
      {"sequence": "GAAGTT", "binding signal": 1.71},
      {"sequence": "TACCCA", "binding signal": 1.15},
      {"sequence": "GCCTCG", "binding signal": 1.35},
      {"sequence": "TGACCT", "binding signal": 1.8},
      {"sequence": "CTGTTA", "binding signal": 1.35},
      {"sequence": "GCTTTA", "binding signal": 1.07},
      {"sequence": "CTATCT", "binding signal": 1.39},
      {"sequence": "CTCCGC", "binding signal": 1.58},
      {"sequence": "GTCCCT", "binding signal": 1.27},
      {"sequence": "CAAAAA", "binding signal": 1.11},
      {"sequence": "ACTAAA", "binding signal": 1.22},
      {"sequence": "TCCCGC", "binding signal": 1.42},
      {"sequence": "ACACGA", "binding signal": 1.1},
      {"sequence": "CAACAA", "binding signal": 1.05},
      {"sequence": "CCTATT", "binding signal": 1.47},
      {"sequence": "CGAAAC", "binding signal": 1.15},
      {"sequence": "TGTATC", "binding signal": 1.36},
      {"sequence": "CTTGAC", "binding signal": 1.24},
      {"sequence": "TATATA", "binding signal": 1.26},
      {"sequence": "TTTGAG", "binding signal": 1.04},
      {"sequence": "CAACCA", "binding signal": 1.06},
      {"sequence": "AAGTAC", "binding signal": 1.69},
      {"sequence": "CATATA", "binding signal": 1.07},
      {"sequence": "ATGCAT", "binding signal": 1.2},
      {"sequence": "AAAATC", "binding signal": 1.11},
      {"sequence": "CCTGCA", "binding signal": 1.22},
      {"sequence": "GGGCCT", "binding signal": 1.36},
      {"sequence": "AAATCC", "binding signal": 1.48},
      {"sequence": "GTCTTC", "binding signal": 1.33},
      {"sequence": "ATCATG", "binding signal": 1.17},
      {"sequence": "TCATTT", "binding signal": 1.3},
      {"sequence": "TCACAT", "binding signal": 1.28}
    ]}
  ]
}
